In patent US20060121042A1 one finds binding data, which are given here for nine molecules.

Sequences of proteins named here, by UniProt entry; tags and fusion partners are left off. A change or cut given only in a name is not applied to a line headed by its entry. Residues count along the entry.
UniProt P54764: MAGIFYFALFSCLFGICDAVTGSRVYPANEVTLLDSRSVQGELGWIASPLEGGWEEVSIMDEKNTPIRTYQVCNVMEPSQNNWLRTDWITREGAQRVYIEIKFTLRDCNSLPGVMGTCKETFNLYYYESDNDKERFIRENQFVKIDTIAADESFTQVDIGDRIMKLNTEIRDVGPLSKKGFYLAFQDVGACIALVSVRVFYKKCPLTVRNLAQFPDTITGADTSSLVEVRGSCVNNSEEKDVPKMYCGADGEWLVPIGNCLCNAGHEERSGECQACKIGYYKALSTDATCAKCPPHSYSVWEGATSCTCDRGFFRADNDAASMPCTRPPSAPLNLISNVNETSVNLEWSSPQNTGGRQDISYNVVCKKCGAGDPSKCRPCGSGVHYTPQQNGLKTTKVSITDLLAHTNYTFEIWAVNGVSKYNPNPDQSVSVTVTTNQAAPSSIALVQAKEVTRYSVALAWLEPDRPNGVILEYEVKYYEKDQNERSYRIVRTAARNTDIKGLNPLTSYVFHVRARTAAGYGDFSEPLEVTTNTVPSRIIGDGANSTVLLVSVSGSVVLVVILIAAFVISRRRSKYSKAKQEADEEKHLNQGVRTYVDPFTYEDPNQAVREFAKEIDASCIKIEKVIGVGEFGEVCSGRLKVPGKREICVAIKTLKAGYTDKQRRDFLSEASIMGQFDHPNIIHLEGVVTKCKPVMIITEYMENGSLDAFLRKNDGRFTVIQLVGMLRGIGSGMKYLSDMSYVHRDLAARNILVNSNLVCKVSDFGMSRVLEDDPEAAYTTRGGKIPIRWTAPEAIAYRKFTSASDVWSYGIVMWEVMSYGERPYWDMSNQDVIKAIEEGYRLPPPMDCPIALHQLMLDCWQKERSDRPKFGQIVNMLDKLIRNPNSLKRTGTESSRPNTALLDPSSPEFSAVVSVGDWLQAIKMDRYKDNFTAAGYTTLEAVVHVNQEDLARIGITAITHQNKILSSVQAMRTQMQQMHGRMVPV
UniProt Q03145, residues 26-535: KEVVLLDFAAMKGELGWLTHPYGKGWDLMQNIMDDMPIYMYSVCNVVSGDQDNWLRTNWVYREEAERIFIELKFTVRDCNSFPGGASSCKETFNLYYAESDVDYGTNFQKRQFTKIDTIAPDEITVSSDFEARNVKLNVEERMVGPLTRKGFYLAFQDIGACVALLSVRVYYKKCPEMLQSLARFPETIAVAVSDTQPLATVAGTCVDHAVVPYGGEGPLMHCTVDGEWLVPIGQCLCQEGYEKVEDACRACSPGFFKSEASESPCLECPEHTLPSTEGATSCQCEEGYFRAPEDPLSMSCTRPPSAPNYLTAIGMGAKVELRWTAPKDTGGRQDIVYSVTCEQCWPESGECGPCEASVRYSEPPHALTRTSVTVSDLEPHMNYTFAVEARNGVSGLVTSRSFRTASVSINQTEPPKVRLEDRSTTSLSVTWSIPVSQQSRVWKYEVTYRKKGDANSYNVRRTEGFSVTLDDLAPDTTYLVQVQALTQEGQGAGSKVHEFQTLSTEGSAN
UniProt Q03137, residues 20-547: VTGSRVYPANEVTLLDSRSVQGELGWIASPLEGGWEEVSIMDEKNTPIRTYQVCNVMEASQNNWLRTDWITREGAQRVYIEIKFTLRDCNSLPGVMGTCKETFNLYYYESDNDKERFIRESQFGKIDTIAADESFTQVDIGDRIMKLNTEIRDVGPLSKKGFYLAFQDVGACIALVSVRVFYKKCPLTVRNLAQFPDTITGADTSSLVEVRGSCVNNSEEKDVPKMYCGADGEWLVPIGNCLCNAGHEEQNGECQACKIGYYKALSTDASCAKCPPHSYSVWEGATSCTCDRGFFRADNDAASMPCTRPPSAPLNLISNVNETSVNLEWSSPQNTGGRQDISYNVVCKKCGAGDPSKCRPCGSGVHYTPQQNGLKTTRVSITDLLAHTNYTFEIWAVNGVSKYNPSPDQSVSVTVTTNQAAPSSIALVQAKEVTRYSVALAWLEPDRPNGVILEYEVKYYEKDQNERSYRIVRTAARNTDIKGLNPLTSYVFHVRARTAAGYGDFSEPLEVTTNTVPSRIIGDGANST
UniProt Q61772, residues 28-555: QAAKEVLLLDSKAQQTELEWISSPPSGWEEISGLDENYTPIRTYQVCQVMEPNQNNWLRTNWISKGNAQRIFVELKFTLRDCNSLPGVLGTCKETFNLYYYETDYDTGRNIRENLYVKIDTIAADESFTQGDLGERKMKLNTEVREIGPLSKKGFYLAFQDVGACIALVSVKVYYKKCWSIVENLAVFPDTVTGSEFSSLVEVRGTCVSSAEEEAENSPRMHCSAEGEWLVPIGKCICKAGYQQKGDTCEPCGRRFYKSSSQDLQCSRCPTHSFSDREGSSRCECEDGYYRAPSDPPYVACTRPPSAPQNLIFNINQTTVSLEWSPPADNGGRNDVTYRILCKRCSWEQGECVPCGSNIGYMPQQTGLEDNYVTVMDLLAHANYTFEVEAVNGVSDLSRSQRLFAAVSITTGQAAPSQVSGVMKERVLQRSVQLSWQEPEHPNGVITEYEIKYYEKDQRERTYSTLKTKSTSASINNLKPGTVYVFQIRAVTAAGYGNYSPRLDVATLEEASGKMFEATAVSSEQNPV

The target in test [1] is human EphA4 (construct not given) (human) (UniProt P54764). Nature of the test: capture ELISA, 25 ng/well sheep anti-human Fd. A general note: In an ELISA, binding on a coated surface is turned into a signal by an enzyme label.
The target in test [2] is Human EphA4-His fusion protein (human) (UniProt P54764). Nature of the test: activity ELISA, Fab on coated antigen.
The target of test [3] is murine EphA2 (mouse) (UniProt Q03145). Nature of the test: activity ELISA, Fab on coated antigen.
In test [4] the target is T1, r human EphA1 (human) (UniProt P21709).
T1 sequence (receptor-Fc fusion, looked up): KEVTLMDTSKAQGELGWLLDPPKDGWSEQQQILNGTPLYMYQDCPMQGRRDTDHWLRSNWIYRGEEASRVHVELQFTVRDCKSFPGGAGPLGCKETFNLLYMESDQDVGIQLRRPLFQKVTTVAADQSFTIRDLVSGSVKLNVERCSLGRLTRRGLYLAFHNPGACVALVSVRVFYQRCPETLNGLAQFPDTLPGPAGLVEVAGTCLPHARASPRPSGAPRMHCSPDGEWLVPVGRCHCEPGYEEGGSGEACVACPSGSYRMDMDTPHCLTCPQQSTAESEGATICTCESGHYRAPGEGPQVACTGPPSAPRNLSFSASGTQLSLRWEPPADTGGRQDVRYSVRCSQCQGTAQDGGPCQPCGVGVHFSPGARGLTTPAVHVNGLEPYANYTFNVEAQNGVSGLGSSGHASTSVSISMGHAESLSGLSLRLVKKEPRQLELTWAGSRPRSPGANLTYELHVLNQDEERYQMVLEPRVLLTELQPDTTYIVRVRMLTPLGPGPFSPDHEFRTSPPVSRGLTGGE
Nature of the test: activity ELISA, Fab on coated antigen.

In test [5] the target is T2, r murine EphA3 (mouse) (UniProt P29319).
T2 sequence (receptor-Fc fusion, looked up): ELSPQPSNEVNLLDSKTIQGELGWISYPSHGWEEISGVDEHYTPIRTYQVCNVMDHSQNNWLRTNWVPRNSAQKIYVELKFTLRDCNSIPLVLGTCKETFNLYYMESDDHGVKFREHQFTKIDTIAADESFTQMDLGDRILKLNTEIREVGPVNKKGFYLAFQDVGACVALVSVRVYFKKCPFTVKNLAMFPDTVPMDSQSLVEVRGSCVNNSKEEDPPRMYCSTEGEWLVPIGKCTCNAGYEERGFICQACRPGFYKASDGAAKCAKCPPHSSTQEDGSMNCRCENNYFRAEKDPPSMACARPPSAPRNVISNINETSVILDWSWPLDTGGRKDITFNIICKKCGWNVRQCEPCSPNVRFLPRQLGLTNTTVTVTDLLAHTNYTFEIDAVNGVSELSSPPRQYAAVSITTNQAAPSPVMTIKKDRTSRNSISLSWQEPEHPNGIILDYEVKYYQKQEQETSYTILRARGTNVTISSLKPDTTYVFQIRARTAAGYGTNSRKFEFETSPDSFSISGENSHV
Nature of the test: activity ELISA, Fab on coated antigen.

Test [6] addresses r murine EphA4 (mouse) (UniProt Q03137). Nature of the test: activity ELISA, Fab on coated antigen.
The target in test [7] is r murine EphA7 (mouse) (UniProt Q61772). Nature of the test: activity ELISA, Fab on coated antigen.
The target in test [8] is murine EphA2 (mouse) (UniProt Q03145). Nature of the test: ELISA titration, Fab on immobilized antigen.
For test [9], the target named is Human EphA4-His fusion protein (human) (UniProt P54764). Nature of the test: secondary screen: Activity ELISA on coated human EphA4-His, normalised by Fab quantification ELISA.
Test [10] concerns the target T3, rmEph B4 (mouse) (UniProt P54761).
T3 sequence (receptor, looked up): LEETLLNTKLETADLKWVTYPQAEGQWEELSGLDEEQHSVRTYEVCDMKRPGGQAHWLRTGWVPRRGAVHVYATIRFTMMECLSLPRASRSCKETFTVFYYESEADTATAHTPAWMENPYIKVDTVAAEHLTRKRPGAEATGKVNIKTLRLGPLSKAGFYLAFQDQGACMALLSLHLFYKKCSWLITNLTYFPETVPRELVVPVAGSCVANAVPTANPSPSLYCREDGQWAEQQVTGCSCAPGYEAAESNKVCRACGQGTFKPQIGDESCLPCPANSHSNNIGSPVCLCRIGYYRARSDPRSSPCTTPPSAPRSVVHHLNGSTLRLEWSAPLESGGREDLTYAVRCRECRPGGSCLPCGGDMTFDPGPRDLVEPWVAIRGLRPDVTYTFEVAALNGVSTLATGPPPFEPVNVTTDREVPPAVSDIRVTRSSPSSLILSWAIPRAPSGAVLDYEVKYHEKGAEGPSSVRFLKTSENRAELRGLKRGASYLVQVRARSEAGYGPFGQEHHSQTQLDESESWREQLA
Nature of the test: ELISA.

Test [11] deals with T4, rmEph B6 (mouse) (UniProt O08644).
T4 sequence (receptor, looked up): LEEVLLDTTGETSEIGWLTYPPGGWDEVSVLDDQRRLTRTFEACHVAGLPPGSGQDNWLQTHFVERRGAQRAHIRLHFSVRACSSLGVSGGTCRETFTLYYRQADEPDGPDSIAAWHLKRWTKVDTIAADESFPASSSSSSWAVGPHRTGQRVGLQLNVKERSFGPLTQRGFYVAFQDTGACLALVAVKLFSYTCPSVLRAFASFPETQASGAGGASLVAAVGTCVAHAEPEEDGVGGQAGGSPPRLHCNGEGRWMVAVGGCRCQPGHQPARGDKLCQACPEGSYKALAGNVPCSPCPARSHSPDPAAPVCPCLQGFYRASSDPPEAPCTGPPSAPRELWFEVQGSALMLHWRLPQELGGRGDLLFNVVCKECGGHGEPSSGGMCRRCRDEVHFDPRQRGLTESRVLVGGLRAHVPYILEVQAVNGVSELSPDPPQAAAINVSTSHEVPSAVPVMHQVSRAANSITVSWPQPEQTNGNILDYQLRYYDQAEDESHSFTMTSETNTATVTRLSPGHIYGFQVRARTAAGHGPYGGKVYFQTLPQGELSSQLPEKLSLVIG
Nature of the test: ELISA.

For test [12], the target named is Human EphA4-His fusion protein (human) (UniProt P54764). Nature of the test: ELISA, Fab titration on EphA4 (FIG. 7).
Test [13] shares this target. Nature of the test: activity ELISA, Fab periplasmic extract on coated human EphA4-His.
The target is the same in test [14]. Nature of the test: Activity ELISA on coated human EphA4-His, normalised by Fab quantification ELISA.

No constants are given. Whether binding was seen depends on the method and setting. Some binding calls cover weakened binding; strength is not graded here.

B1: 10D11 (Fab, V domains shown)
VH: QVQLLQSGAEVKKPGASVKVPCKASGYTFTSYAMSWVRQAPGQGLEWMGWINTNTGNPTYAQGFTGRFVFSLDTSVSTAYLQISSLKAEDTAVYYCARVRLTVYGDGMDVWGQGTLVTVSS
VL: EIVLTQSPATLSVSPGERATLSCRASQSVSSNLAWYQQKPGQAPRLLIYGASTRATGIPDRFSASGSGTDFTLTISRVEPEDFAVYYCQQYGSSWTFGQGTKVEIK
Regarding B1, in test [1], the binding entry is reported as “binds”.

B2: 8B4 Fab (affinity optimized combinatorial variant of Fab20) (Fab, V domains shown)
VH: QVQLLQSGAEVKKPGASVKVPCKASGYTFTSRAMSWVRQAPGQGLEWMGWINTNTGNPTYAQGFTGRFVFSLDTSVSTAYLQISSLKAEDTAVYYCARVRLTVYGDGMDVWGQGTLVTVSS
VL: EIVLTQSPATLSVSPGERATLSCRASQSVSSNPAWYQQKPGQAPRLLIYGLSTRATGIPDRFSASGSGTDFTLTISRVEPEDFAVYYCQQYGPSWTFGQGTKVEIK
On to B2, for which the binding result in test [2], in test [3], in test [4], in test [5], in test [6] and in test [7] was “binds” throughout. In addition, the binding result in test [8] and in [9] was “binds” in each case.

B3: human Anti-Eph Monoclonal Antibody GEA44 (antibody, V domains shown)
VH: QVQLLQSGAEVKKPGASVKVPCKASGYTFTSYAMSWVRQAPGQGLEWMGWINTNTGNPTYAQGFTGRFVFSLDTSVSTAYLQISSLKAEDTAVYYCARVRTTVYGDGMDVWGQGTLVTVSS
VL: EIVLTQSPATLSVSPGERATLSCRASQSVSSNLAWYQQKPGQAPRLLIYGASTRATGIPDRFSASGSGTDFTLTISRVEPEDFAVYYCQQYGSSWTFGQGTKVEIK
Take B3: in test [10], the binding result was “no binding”.

B4: 2F1 (Fab, V domains shown)
VH: QVQLLQSGAEVKKPGASVKVPCKASGYTFTSYAMSWVRQAPGQGLEWMGWINTNTGNPTYAQGFTGRFVFSLDTSVSTAYLQISSLKAEDTAVYYCARVRTTPYGDGMDVWGQGTLVTVSS
VL: EIVLTQSPATLSVSPGERATLSCRASQSVSSNLAWYQQKPGQAPRLLIYGASTRATGIPDRFSASGSGTDFTLTISRVEPEDFAVYYCQQYGSSWTFGQGTKVEIK
For the molecule B4, in test [1], the binding result is listed as “binds”.

B5: GEA44 11H1 (antibody, V domains shown)
VH: QVQLLQSGAEVKKPGASVKVPCKASGYTFTSYAMSWVRQAPGQGLEWMGWINTNTGNPTYAQGFTGRFVFSLDTSVSTAYLQISSLKAEDTAVYYCARVRLTVYGDGMDVWGQGTLVTVSS
VL: EIVLTQSPATLSVSPGERATLSCRASQSVSSNLAWYQQKPGQAPRLLIYGASTRATGIPDRFSASGSGTDFTLTISRVEPEDFAVYYCQQYGSSWTFGQGTKVEIK
With B5, the binding result in [10] and in [11] was “no binding” throughout.

B6: 11G6 Fab (affinity optimized CDR3 heavy variant of Fab20) (Fab, V domains shown)
VH: QVQLLQSGAEVKKPGASVKVPCKASGYTFTSYAMSWVRQAPGQGLEWMGWINTNTGNPTYAQGFTGRFVFSLDTSVSTAYLQISSLKAEDTAVYYCARVRFTVYGDGMDVWGQGTLVTVSS
VL: EIVLTQSPATLSVSPGERATLSCRASQSVSSNLAWYQQKPGQAPRLLIYGASTRATGIPDRFSASGSGTDFTLTISRVEPEDFAVYYCQQYGSSWTFGQGTKVEIK
As to B6, the binding entry in test [12], in test [13] and in test [14] was “binds” throughout.

B7: 2B5 (Fab, V domains shown)
VH: QVQLLQSGAEVKKPGASVKVPCKASGYTFTSYAMSWVRQAPGQGLEWMGWINTNTGNPTYAQGFTGRFVFSLDTSVSTAYLQISSLKAEDTAVYYCARVRTTPYGDGMDVWGQGTLVTVSS
VL: EIVLTQSPATLSVSPGERATLSCRASQSVSSNLAWYQQKPGQAPRLLIYGASTRATGIPDRFSASGSGTDFTLTISRVEPEDFAVYYCQQYGSSWTFGQGTKVEIK
Turning to B7, the binding result in test [1] was “binds”.

B8: 6F9 (Fab, V domains shown)
VH: QVQLLQSGAEVKKPGASVKVPCKASGYTFTSYAMSWVRQAPGQGLEWMGWINTNTGNPTYAQGFTGRFVFSLDTSVSTAYLQISSLKAEDTAVYYCARVRTTPYGDGMDVWGQGTLVTVSS
VL: EIVLTQSPATLSVSPGERATLSCRASQSVSSNLAWYQQKPGQAPRLLIYGASTRATGIPDRFSASGSGTDFTLTISRVEPEDFAVYYCQQYGSSWTFGQGTKVEIK
Consider B8, for which the binding result in [1] is listed as “binds”.

B9: 1A5 (Fab, V domains shown)
VH: QVQLLQSGAEVKKPGASVKVPCKASGYTFTSYAMSWVRQAPGQGLEWMGWINTNTGNPTYAQGFTGRFVFSLDTSVSTAYLQISSLKAEDTAVYYCARVRTTPYGDGMDVWGQGTLVTVSS
VL: EIVLTQSPATLSVSPGERATLSCRASQSVSSNLAWYQQKPGQAPRLLIYGASTRATGIPDRFSASGSGTDFTLTISRVEPEDFAVYYCQQYGSSWTFGQGTKVEIK
B9: in [1], the binding result is “binds”.
